{"source": "PubChem BioAssay AID652272 (Drosophila RNAi Screening Center, 2013)", "screen": "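Genes whose knock-down decreases or increases Hedgehog reporter output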 (primary screen)", "system": "Drosophila clone 8 (Cl8) cells", "knock-down reagent": "long dsRNA against Drosophila genes", "measurement": "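Firefly light from a Hedgehog-responsive ptc promoter reporter and Renilla reference light, both read on a plate reader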", "direction": "firefly Hh reporter signal: higher = more ptc reporter light; Renilla reference signal: higher = more Renilla control light", "rule for the call": "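Called a hit if the two-replicate mean z-score lies below -2 or above +3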", "meaning of the calls": "active = hit: reporter lowered or raised; inactive = not a hit", "note": "The deposit covers about 21,000 reagents; this is an unselected part of those with a known target gene and a result. In the full data, 503 (2.4%) were called active. 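Raw plate light values, not normalised; calls rest on replicate z-scores that were not deposited; hits include reporter decreases as well as increases.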 A number with no mark means an inactive call. Not given: the amount of reagent, the time to read-out."}
{"Gene": "CG4119", "dsRNA": "DRSC17741", "firefly Hh reporter signal, replicate 1": 1.04e5, "firefly Hh reporter signal, replicate 2": 89143, "Renilla reference signal, replicate 1": 3048, "Renilla reference signal, replicate 2": 2709}
{"Gene": "Gld", "dsRNA": "DRSC12595", "firefly Hh reporter signal, replicate 1": 77769, "firefly Hh reporter signal, replicate 2": 94219, "Renilla reference signal, replicate 1": 3879, "Renilla reference signal, replicate 2": 3141}
{"Gene": "CR34254", "dsRNA": "DRSC09562", "firefly Hh reporter signal, replicate 1": 2.60e5, "Renilla reference signal, replicate 1": 5392}
{"Gene": "Sys1", "dsRNA": "DRSC14372", "firefly Hh reporter signal, replicate 1": 1.04e5, "firefly Hh reporter signal, replicate 2": 1.32e5, "Renilla reference signal, replicate 1": 3933, "Renilla reference signal, replicate 2": 3752}
{"Gene": "eIF2beta", "dsRNA": "DRSC11341", "firefly Hh reporter signal, replicate 1": 4152, "firefly Hh reporter signal, replicate 2": 37461, "firefly Hh reporter signal, replicate 3": 58032, "Renilla reference signal, replicate 1": 3495, "Renilla reference signal, replicate 2": 4797}
{"Gene": "CG17991", "dsRNA": "DRSC15294", "firefly Hh reporter signal, replicate 1": 99138, "firefly Hh reporter signal, replicate 2": 1.09e5, "Renilla reference signal, replicate 1": 3712, "Renilla reference signal, replicate 2": 3848}
{"Gene": "CG6470", "dsRNA": "DRSC19994", "firefly Hh reporter signal, replicate 1": 1.22e5, "firefly Hh reporter signal, replicate 2": 68585, "Renilla reference signal, replicate 1": 2869, "Renilla reference signal, replicate 2": 1200}
{"Gene": "CG17597", "dsRNA": "DRSC02630", "firefly Hh reporter signal, replicate 1": 73313, "firefly Hh reporter signal, replicate 2": 1.16e5, "Renilla reference signal, replicate 1": 3152, "Renilla reference signal, replicate 2": 4380}
{"Gene": "CG34159", "dsRNA": "DRSC02885", "firefly Hh reporter signal, replicate 1": 57335, "firefly Hh reporter signal, replicate 2": 27032, "Renilla reference signal, replicate 1": 1379, "Renilla reference signal, replicate 2": 2008}
{"Gene": "CG42326", "dsRNA": "DRSC06483", "firefly Hh reporter signal, replicate 1": 1.23e5, "firefly Hh reporter signal, replicate 2": 66484, "Renilla reference signal, replicate 1": 2854, "Renilla reference signal, replicate 2": 5984}
{"Gene": "CG42326", "dsRNA": "DRSC06484", "firefly Hh reporter signal, replicate 1": 70345, "firefly Hh reporter signal, replicate 2": 41800, "Renilla reference signal, replicate 1": 1943, "Renilla reference signal, replicate 2": 3701}
{"Gene": "CG13258", "dsRNA": "DRSC02244", "firefly Hh reporter signal, replicate 1": 94071, "firefly Hh reporter signal, replicate 2": 81783, "Renilla reference signal, replicate 1": 2400, "Renilla reference signal, replicate 2": 6837}

Not a retest: entries from further up.
{"Gene": "CG6470", "dsRNA": "DRSC19994", "firefly Hh reporter signal, replicate 1": 1.22e5, "firefly Hh reporter signal, replicate 2": 68585, "Renilla reference signal, replicate 1": 2869, "Renilla reference signal, replicate 2": 1200}
{"Gene": "CG17597", "dsRNA": "DRSC02630", "firefly Hh reporter signal, replicate 1": 73313, "firefly Hh reporter signal, replicate 2": 1.16e5, "Renilla reference signal, replicate 1": 3152, "Renilla reference signal, replicate 2": 4380}
{"Gene": "CG34159", "dsRNA": "DRSC02885", "firefly Hh reporter signal, replicate 1": 57335, "firefly Hh reporter signal, replicate 2": 27032, "Renilla reference signal, replicate 1": 1379, "Renilla reference signal, replicate 2": 2008}

Additional reagents:
{"Gene": "CG12402", "dsRNA": "DRSC14508", "firefly Hh reporter signal, replicate 1": 50438, "firefly Hh reporter signal, replicate 2": 69465, "Renilla reference signal, replicate 1": 1298, "Renilla reference signal, replicate 2": 1465}
{"Gene": "CG9107", "dsRNA": "DRSC03138", "firefly Hh reporter signal, replicate 1": 1.00e5, "firefly Hh reporter signal, replicate 2": 76338, "Renilla reference signal, replicate 1": 3747, "Renilla reference signal, replicate 2": 2957}
{"Gene": "CheA46a", "dsRNA": "DRSC05184", "firefly Hh reporter signal, replicate 1": 1.03e5, "firefly Hh reporter signal, replicate 2": 2.19e5, "Renilla reference signal, replicate 1": 2928, "Renilla reference signal, replicate 2": 9773}
{"Gene": "conv", "dsRNA": "DRSC07213", "firefly Hh reporter signal, replicate 1": 74160, "firefly Hh reporter signal, replicate 2": 55814, "Renilla reference signal, replicate 1": 1845, "Renilla reference signal, replicate 2": 4164}
{"Gene": "Orp8", "dsRNA": "DRSC15110", "firefly Hh reporter signal, replicate 1": 6.25e5, "firefly Hh reporter signal, replicate 2": 5.77e5, "firefly Hh reporter signal, replicate 3": 1.14e5, "Renilla reference signal, replicate 1": 39202, "Renilla reference signal, replicate 2": 3414}
{"Gene": "Orp8", "dsRNA": "DRSC15712", "firefly Hh reporter signal, replicate 1": 1.20e5, "firefly Hh reporter signal, replicate 2": 69514, "Renilla reference signal, replicate 1": 5189, "Renilla reference signal, replicate 2": 3040}
{"Gene": "CG34109", "dsRNA": "DRSC02169", "firefly Hh reporter signal, replicate 1": 1.07e5, "firefly Hh reporter signal, replicate 2": 57448, "Renilla reference signal, replicate 1": 3129, "Renilla reference signal, replicate 2": 5216}
{"Gene": "CG34109", "dsRNA": "DRSC02224", "firefly Hh reporter signal, replicate 1": 1.03e5, "firefly Hh reporter signal, replicate 2": 47200, "Renilla reference signal, replicate 1": 2880, "Renilla reference signal, replicate 2": 4610}
{"Gene": "CG34109", "dsRNA": "DRSC02225", "firefly Hh reporter signal, replicate 1": 1.00e5, "firefly Hh reporter signal, replicate 2": 43813, "Renilla reference signal, replicate 1": 3252, "Renilla reference signal, replicate 2": 5490}
